Out of some 2,400 compounds screened, about 20 (0.8%) were called active.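 The calls were made as follows: active = AC50 no more than ten times the highest tested concentration, or full inhibition at every dose giving a flat fit (cut at about 30 µM in these data); inconclusive = flat fit with activity between 30% and 70%, or poor-quality invalid fit; inactive = AC50 more than ten times the top tested dose.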 This is one part of the list. Bounds are passed on as bounds.

This test is described as follows: inhibitors of ADP-Glo detection reagents, dose response, artefact control for GSK-3a inhibitor project, biochemical, luminescence, cell-free, homogeneous (AID 463205).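 Also: kinase-free counter-screen against the ADP-Glo detection reagents only; potency is for inhibitors that reduce the luminescence signal.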 Conditions: 5 uM ADP. On the technique in general: In ADP-Glo the light output rises with the ADP produced.
What is called AC50 is the concentration at which the activity in the assay is half-maximal. `COc1cccc(N/C(SC)=C(/C#N)C(N)=O)c1`: the AC50 is inactive: > 30 µM.

Turning to `CCC(=O)Nc1sc2c(c1C(N)=O)CCC2`, the AC50 was inactive: > 30 µM. To `COc1ccc(-n2c(C)c([N+](=O)[O-])c3ccc(O)c(CN(C)C)c32)cc1` belongs inactive: > 30 µM; to `COc1ccc(CCNc2nc(C)c(C(C)=O)s2)cc1OC`, inactive: > 30 µM. Under `COc1cccc(-c2c(C(=O)N/N=C(\C)c3cccnc3)nnn2-c2nonc2N)c1` stands inactive: > 30 µM; under `COc1ccccc1N1CCN(C(=O)c2cc(-c3ccccc3)on2)CC1`, inactive: > 30 µM; under `CC1CCN(Cc2c(C(=O)N/N=C/c3ccc(C(C)C)cc3)nnn2-c2nonc2N)CC1`, inactive: > 30 µM. To `CCOC(=O)N1CCN(C(=O)CSc2ccc3nnc(-c4ccccn4)n3n2)CC1` belongs inactive: > 30 µM; to `Cc1ccc(N(Cc2ccc([N+](=O)[O-])cc2)C(=O)c2ccco2)cc1`, inactive: > 30 µM; to `Cc1ccc2oc(=O)c3cnn(CC(=O)N4CCc5ccccc5C4)c3c2c1`, inactive: > 30 µM. `O=C(Nc1cccc(O)c1)c1ccc([N+](=O)[O-])cc1Cl`: the AC50 was inactive: > 30 µM. To `CNC(=O)NCC12CC3CC(CC(C3)C1)C2` belongs inactive: > 30 µM. Under `N/C(=N\OC(=O)c1ccc2ccccc2c1)c1cccc([N+](=O)[O-])c1` stands inactive: > 30 µM; under `CC(=O)Nc1ccc(OC(=O)CC2SC(=O)NC2=O)cc1` (configuration not stated), inactive: > 30 µM. Under `Cc1cccc(-c2c3c(=O)n(C)c(=O)n(C)c3c3cccnn23)c1` stands inactive: > 30 µM; under `Cc1ccc(-n2nnnc2SCc2nnc(-c3ccccc3Br)o2)cc1`, inactive: > 30 µM. `COC(=O)[C@@H](NC(=O)NCc1ccccc1Cl)C(C)C`: the AC50 was inactive: > 30 µM. Regarding `NS(=O)(=O)c1ccc(Nc2nc(-c3ccc(O)cc3)cs2)cc1`, the AC50 is inactive: > 30 µM. With `CCCCN(CCCC)c1cn[nH]c(=O)c1Cl`, the AC50 was inactive: > 30 µM. To `Cc1nc(Nc2ccc(F)cc2)nc(Nc2ccc(F)cc2)c1[N+](=O)[O-]` belongs inactive: > 30 µM; to `Nc1nccnc1C(=O)N/N=C/c1ccco1`, inactive: > 30 µM. To `O=C(COC(=O)c1cc([N+](=O)[O-])ccc1N1CCOCC1)Nc1ccc(Cl)cn1` belongs inactive: > 30 µM. Under `CC(=O)Oc1cc2c3c(c1)/C(=C1/SC(=S)NC1=O)C(=O)N3C(C)(C)C=C2C` stands inactive: > 30 µM; under `CCCCOC(=O)C1=C(C)Nc2ncnn2C1c1ccc(OC)c(OC)c1` (configuration not stated), inactive: > 30 µM; under `COc1cccc(/C=N/NC(=O)C(=O)N2CCCC2)c1OC`, inactive: > 30 µM.

Take `O=C(O)c1ccc2c(c1)S(=O)(=O)c1ccccc1C2=O`: the AC50 is inactive: > 30 µM. To `CC1=CC(=C2C(=O)c3ccccc3C2=O)C=C(C)N1Cc1ccco1` belongs inactive: > 30 µM; to `COc1cccc(/C=N/NC(=O)COc2cccc3cccnc23)c1O`, inactive: > 30 µM; to `CCOc1cc(/C=N/Nc2ncnc(Cl)c2N)ccc1O`, inactive: > 30 µM. Under `CCN1C(=O)/C(=C\c2cccs2)C(C(=O)OC)=C1C` stands inactive: > 30 µM. Under `O=c1[nH]nc(SCc2nnc(-c3cccc(Cl)c3)o2)n1C1CCCCC1` stands inactive: > 30 µM; under `COC(=O)c1sccc1-c1ccc(C(N)=O)o1`, inactive: > 30 µM; under `O=C1c2c(O)ccc(O)c2C(=O)c2c(NCCNCCO)ccc(NCCNCCO)c21`, inactive: > 30 µM. For the molecule `CCOC(=O)c1nnn(-c2nonc2N)c1COc1cc(C)c(Cl)c(C)c1`, the AC50 is inactive: > 30 µM.

Turning to `COc1ccc(-c2c(C(C)=O)c(C)nc3sc4c(=O)[nH]nnc4c23)cc1`, the AC50 is inactive: > 30 µM.

For `Cn1cnnc1Sc1ccc(CN2CCN(C3CCCC3)C(CCO)C2)o1` (configuration not stated), the AC50 is inactive: > 30 µM. To `O=C(CCc1nnc(-c2ccc3c(c2)OCO3)o1)N1CCC(c2ccc(F)cc2)C1` (configuration not stated) belongs inactive: > 30 µM; to `O=C(Nc1ccccc1N1CCOCC1)c1ccc(S(=O)(=O)NCc2ccco2)cc1`, inactive: > 30 µM. Under `CCSc1nc2c(c(=O)[nH]1)C(c1ccc(C)cc1)C1=C(CCCC1=O)N2` (configuration not stated) stands inactive: > 30 µM; under `COc1ccc(CCNC(=O)c2nnn(-c3ccccc3OC)c2N)cc1OC`, inactive: > 30 µM; under `Cc1nc(NCC2CCCO2)[nH]c(=O)c1CCC(C)C` (configuration not stated), inactive: > 30 µM. To `Nc1nc2n(n1)C(c1ccc(F)cc1)CC(c1ccc(F)cc1)N2` (configuration not stated) belongs inactive: > 30 µM. On to `COc1ccc(C2CC(=O)N3CN(Cc4ccco4)CSC3=C2C#N)cc1` (configuration not stated), for which the AC50 was inactive: > 30 µM. Turning to `CC(=O)C(Sc1ccc2nnc(-c3ccncc3)n2n1)C(C)=O`, the AC50 was inactive: > 30 µM. Under `N#Cc1cnn2c3c(cnc12)C(=O)N1CCc2ccccc2C1C3` (configuration not stated) stands inactive: > 30 µM; under `CCCOC(=O)c1[nH]c2c(c1C)C(=O)CC(c1cc(OC)c(OC)c(OC)c1)C2` (configuration not stated), inactive: > 30 µM; under `COc1ccc(-c2cc(=O)c3ccccc3s2)cc1`, inactive: > 30 µM. To `O=c1c2ccccc2[nH]c2ccccc12` belongs inactive: > 30 µM. With `CCOC(=O)N1CC=C2C(C#N)=C(N)C(C#N)(C#N)[C@H](c3cccs3)C2C1` (some centres not stated), the AC50 is inactive: > 30 µM. Under `Cc1ccccc1C(=O)O/N=C(\N)c1cccc([N+](=O)[O-])c1` stands inactive: > 30 µM; under `CCOc1ccc(Cn2nnc(C(=O)Nc3cc(C)cc(C)c3)c2N)cc1`, inactive: > 30 µM; under `O=C(CSc1ccc2nnc(-c3ccc(Cl)cc3)n2n1)N1CCCC1`, inactive: > 30 µM. Consider `Cc1ccc(C(=O)N/C(=C\c2ccc(-c3ccc(Cl)cc3)o2)C(=O)NCCCN(C)C)cc1`, for which the AC50 was inactive: > 30 µM. To `CC1CCN(CCCNc2cc(NCCO)c([N+](=O)[O-])c3nonc23)CC1` belongs inactive: > 30 µM.

As for `Cc1c(C(=O)N2CCOCC2)oc2ccc(S(=O)(=O)N3CCCCCC3)cc12`, the AC50 was inactive: > 30 µM. To `O=[N+]([O-])c1cc(S(=O)(=O)N2CCCCC2)ccc1NCCCN1CCOCC1` belongs inactive: > 30 µM; to `COC(=O)C(C)Sc1ccc2nnc(-c3cccc(F)c3)n2n1` (configuration not stated), inactive: > 30 µM. To `COc1cc(/C=C2/S/C(=N/S(=O)(=O)Cc3ccccc3)NC2=O)c([N+](=O)[O-])cc1OC` belongs inactive: > 30 µM; to `Cc1nc(SCC(=O)N(CC(C)C)C2CCS(=O)(=O)C2)c2ccccc2n1` (configuration not stated), inactive: > 30 µM.

As to `CC(=O)OCC1OC(n2ccc(=O)[nH]c2=O)C(O)C1O` (configuration not stated), the AC50 is inactive: > 30 µM. Under `CCOC(=O)c1nnn(-c2nonc2N)c1-c1ccc(F)cc1` stands inactive: > 30 µM; under `O=C(NCCCN1CCN(Cc2ccccc2Cl)CC1)Nc1ccccc1`, inactive: > 30 µM; under `CCc1cc2c(N3CCN(c4nnc(CC)s4)CC3)ncnc2s1`, inactive: > 30 µM. Take `CCNc1ccc2noc3c2c1C(=O)c1ccccc1-3`: the AC50 is inactive: > 30 µM.

As for `Cc1ccc(N(CC(O)CN2CCCCC2)S(=O)(=O)c2ccc(C)cc2)cc1` (configuration not stated), the AC50 is inactive: > 30 µM. Under `CCCc1cc(=O)[nH]c(SCC(=O)Nc2sc3c(c2C(N)=O)CCCC3)n1` stands inactive: > 30 µM. To `COc1c(C)cc(Br)cc1C(=O)Nc1cccc(NC(=O)c2ccco2)c1` belongs inactive: > 30 µM. Under `O=C(NC1(C(F)(F)F)NC(=O)N(Cc2cccnc2)C1=O)c1ccncc1` (configuration not stated) stands inactive: > 30 µM. On to `Cc1ccnc(NC(=O)CN2C(=O)c3ccccc3C2=O)c1`, for which the AC50 was inactive: > 30 µM. To `CC(=O)Nc1ccc(CC#N)cc1` belongs inactive: > 30 µM; to `CC(C)NC(=O)Nc1n[nH]c(Nc2ccc(Cl)cc2)n1`, inactive: > 30 µM. Under `Cc1cc2nc(-c3cccnc3SCC(=O)NC3CC3)[nH]c2cc1C` stands inactive: > 30 µM; under `O=c1[nH]ncn1-c1ccccc1`, inactive: > 30 µM; under `Oc1ccc2oc3c(c2c1C=NCc1ccncc1)CCCC3`, inactive: > 30 µM. Under `COc1ccc2[nH]c(-c3ccc(C)cc3)cc(=O)c2c1` stands inactive: > 30 µM; under `O=C(c1ccc(Cn2cnnn2)cc1)N1CCCC(Nc2ccc(F)cc2)C1` (configuration not stated), inactive: > 30 µM.

For the molecule `CCCCC(=O)Nc1nn(CCC)c2nc3ccccc3cc12`, the AC50 was inactive: > 30 µM. Consider `CCOC(=O)c1c(NC(=O)CN2C(=O)NC3(CCCCC3C)C2=O)sc(C(=O)N(C)C)c1C` (configuration not stated), for which the AC50 is inactive: > 30 µM. As to `Cn1c2ccc(Cl)cc2c2nc3ccccc3nc21`, the AC50 was inactive: > 30 µM. To `O=C1c2cnc3nc(SCc4cccc(Cl)c4)nn3c2CC2c3ccccc3CCN12` (configuration not stated) belongs inactive: > 30 µM; to `CCOc1ccc(-c2c(C(=O)N/N=C(\C)c3ccncc3)nnn2-c2nonc2N)cc1`, inactive: > 30 µM. As for `COc1ccc(CC(=O)Oc2ccccc2C)cc1`, the AC50 was inactive: > 30 µM. Under `CC1CCCN(Cc2c(O)ccc3c2O/C(=C\c2ccco2)C3=O)C1` (configuration not stated) stands inactive: > 30 µM. Under `Cc1ccnc(NC(=O)CCC(=O)N(CC(=O)NCc2ccccc2)Cc2ccccc2)c1` stands inactive: > 30 µM; under `C/C(CC(=O)N(C(C)C)C(C)C)=N\NC(=O)COc1ccc(Cl)cc1Cl`, inactive: > 30 µM. As for `COc1cccc(-c2nc(-c3ccccc3)[nH]c(=O)c2C#N)c1`, the AC50 was inactive: > 30 µM. Under `COc1ccc(CNc2ccc3cn[nH]c3c2)c(OC)c1OC` stands inactive: > 30 µM; under `CCC/C(=N/NC(=O)c1nnn(-c2nonc2N)c1CN1CCCCC1)c1ccccc1`, inactive: > 30 µM. Under `O=C(COC(=O)Cc1ccsc1)Nc1ccc(Cl)cn1` stands inactive: > 30 µM; under `COc1cc(NC(=O)c2nnn(Cc3ccc(SC)cc3)c2N)cc(OC)c1`, inactive: > 30 µM.

For the molecule `O=C(COc1ccccc1Cl)NC1CC1`, the AC50 is inactive: > 30 µM. Under `Cc1ccc(/C=N/NC(=O)c2nnn(-c3nonc3N)c2-c2cccs2)cc1` stands inactive: > 30 µM.
